These results are taken from article PMC9120017, “Inhibition mechanism of the chloride channel TMEM16A by the pore blocker 1PBC” (Nature Communications, 2022).

Results are given in words; binding and its absence hold for the method and conditions named. Some binding calls cover weakened binding; strength is not graded here.

In this test the target is T1, mouse TMEM16A (ac splice variant), wild type (mouse), Q8BHY3.
T1 chain: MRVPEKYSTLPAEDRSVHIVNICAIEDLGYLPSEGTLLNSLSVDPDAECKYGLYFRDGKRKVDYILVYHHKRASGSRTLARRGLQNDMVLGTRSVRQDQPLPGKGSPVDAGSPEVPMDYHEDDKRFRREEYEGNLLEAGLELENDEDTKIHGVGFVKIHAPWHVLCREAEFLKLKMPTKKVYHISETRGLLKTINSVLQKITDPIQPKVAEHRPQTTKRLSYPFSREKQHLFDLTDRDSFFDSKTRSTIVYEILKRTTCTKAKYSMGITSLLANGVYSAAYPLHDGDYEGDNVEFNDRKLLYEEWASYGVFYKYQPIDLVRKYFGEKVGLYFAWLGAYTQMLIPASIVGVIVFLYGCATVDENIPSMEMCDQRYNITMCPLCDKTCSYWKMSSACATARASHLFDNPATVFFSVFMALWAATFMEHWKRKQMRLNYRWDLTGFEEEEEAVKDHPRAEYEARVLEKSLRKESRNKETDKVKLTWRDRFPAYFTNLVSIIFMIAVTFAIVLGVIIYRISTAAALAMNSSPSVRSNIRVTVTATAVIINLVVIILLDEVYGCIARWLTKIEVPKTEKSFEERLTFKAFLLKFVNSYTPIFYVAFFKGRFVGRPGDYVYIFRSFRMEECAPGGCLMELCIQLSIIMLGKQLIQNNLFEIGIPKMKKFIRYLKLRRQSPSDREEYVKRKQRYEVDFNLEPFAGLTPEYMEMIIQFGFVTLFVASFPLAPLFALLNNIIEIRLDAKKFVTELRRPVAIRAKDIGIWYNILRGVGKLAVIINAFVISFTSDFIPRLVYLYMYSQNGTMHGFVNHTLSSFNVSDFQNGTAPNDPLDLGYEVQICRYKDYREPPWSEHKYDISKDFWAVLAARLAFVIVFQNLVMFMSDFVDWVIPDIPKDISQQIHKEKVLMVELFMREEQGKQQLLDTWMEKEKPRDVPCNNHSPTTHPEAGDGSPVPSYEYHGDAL
Description: cryo-EM structure; purified protein in GDN, pre-incubated with 100 µM 1PBC and 1 mM free Ca2+ at 4 °C; non-coated and graphene oxide-coated grids; C2 symmetry applied; 2.85 Å; both purified. The settings on record: remark: other sources report otherwise.

B1: mouse TMEM16A (ac splice variant), wild type, Q8BHY3 1-960 (protein)
chain: MRVPEKYSTLPAEDRSVHIVNICAIEDLGYLPSEGTLLNSLSVDPDAECKYGLYFRDGKRKVDYILVYHHKRASGSRTLARRGLQNDMVLGTRSVRQDQPLPGKGSPVDAGSPEVPMDYHEDDKRFRREEYEGNLLEAGLELENDEDTKIHGVGFVKIHAPWHVLCREAEFLKLKMPTKKVYHISETRGLLKTINSVLQKITDPIQPKVAEHRPQTTKRLSYPFSREKQHLFDLTDRDSFFDSKTRSTIVYEILKRTTCTKAKYSMGITSLLANGVYSAAYPLHDGDYEGDNVEFNDRKLLYEEWASYGVFYKYQPIDLVRKYFGEKVGLYFAWLGAYTQMLIPASIVGVIVFLYGCATVDENIPSMEMCDQRYNITMCPLCDKTCSYWKMSSACATARASHLFDNPATVFFSVFMALWAATFMEHWKRKQMRLNYRWDLTGFEEEEEAVKDHPRAEYEARVLEKSLRKESRNKETDKVKLTWRDRFPAYFTNLVSIIFMIAVTFAIVLGVIIYRISTAAALAMNSSPSVRSNIRVTVTATAVIINLVVIILLDEVYGCIARWLTKIEVPKTEKSFEERLTFKAFLLKFVNSYTPIFYVAFFKGRFVGRPGDYVYIFRSFRMEECAPGGCLMELCIQLSIIMLGKQLIQNNLFEIGIPKMKKFIRYLKLRRQSPSDREEYVKRKQRYEVDFNLEPFAGLTPEYMEMIIQFGFVTLFVASFPLAPLFALLNNIIEIRLDAKKFVTELRRPVAIRAKDIGIWYNILRGVGKLAVIINAFVISFTSDFIPRLVYLYMYSQNGTMHGFVNHTLSSFNVSDFQNGTAPNDPLDLGYEVQICRYKDYREPPWSEHKYDISKDFWAVLAARLAFVIVFQNLVMFMSDFVDWVIPDIPKDISQQIHKEKVLMVELFMREEQGKQQLLDTWMEKEKPRDVPCNNHSPTTHPEAGDGSPVPSYEYHGDAL
In the case of B1, the binding entry is given as “binds”.
